According to patent publication US20050014762A1, “Combination” (priority 2001, published 2005):
“And” between values parts separate entries of the source, which are not always exact repeats. Equal entries are not always repeated. Where two headings read alike, the source gives them in different places.

Tested on: SRS-A-mediated bronchoconstriction after ovalbumin (OVA) challenge in guinea pigs
Assay: SRS-A-mediated (OVA-induced) bronchoconstriction in anaesthetized, mechanically ventilated sensitized guinea pigs
Type: in vivo, guinea pig
Conditions: Cavia porcellus
Experimental: To assess the additive or synergistic inhibitory effect of the selective phosphodiesterase-4 inhibitor ROFLUMILAST combined with the leukotriene receptor antagonist MONTELUKAST both orally administered 1 h before ovalbumin (OVA) challenge on the early, mainly leukotriene-mediated (SRS-A=slow reacting substance of anaphylaxis) bronchoconstriction in anaesthetized, mechanically ventilated guinea pigs. Male Dunkin Hartley guinea pigs; body weight 200-250 g at sensitization and 350-500 g when performing the experiments. Ovalbumin (OVA) was used as allergen for active sensitization. Therefore, 20 μg OVA together with 20 mg Al(OH)3 suspended in 0.5 ml 0.9% NaCl-solution (=saline) were administered i.p. to each animal on 2 consecutive days. […] Controls received the drug-free methocel-solution 1 h before OVA-challenge as placebo (n=12). […] The time-effect curve for the delta-%-decrease of compliance and conductance was determined up to 12 min post challenge. Blood pressure and heart rate were monitored to control vitality. The area under the time-delta-%-decrease curves (AUC) was determined for each animal. On basis of the AUC-values, the inhibition of the SRS-A-induced decrease of compliance and conductance was calculated in reference to placebo. […] Measured and calculated ED50-values were compared by an unpaired t-test for statistical significant differences.

## CC(C)(O)c1ccccc1CC[C@@H](SCC1(CC(=O)[O-])CC1)c1cccc(/C=C/c2ccc3ccc(Cl)cc3n2)c1.[Na+] [MONTELUKAST sodium salt, 2-[1-[1(R)-[3-[2(E)-(7-chloroquinolin-2-yl)vinyl]phenyl]-3-[2-(1-hydroxy-1-methylethyl)phenyl]propylsulfanylmethyl]cyclopropyl]acetic acid sodium salt]
read-out: ED50, inhibition of decrease of airway compliance
  ED50: 0.053 mg/kg and 0.086 µmol/kg
read-out: ED50, inhibition of decrease of airway conductance
  ED50: 0.055 mg/kg and 0.09 µmol/kg
